PubChem BioAssay AID1224830 – NIAID, 2016
Test: 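Host factors that control LPS-induced TNF expression in human macrophages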 (primary screen). Cells: human THP-1 monocytic leukaemia cells, TNF dual-luciferase reporter clone, PMA-differentiated to macrophage-like cells. Reagent: siRNA pool against human genes, 50 nM. Time to read-out: LPS for 4 h, given about 3 days after siRNA transfection. Challenge: bacterial LPS (TLR4 ligand), 10 ng/ml. Measured: 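TNF firefly reporter luminescence divided by renilla, normalised to the plate median, then turned into a robust z-score for each replicate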. Scale: TNF reporter robust z-score: higher = stronger TNF reporter response to LPS. Active means: 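a well is active when its z-score exceeds 2.8 or falls below -1.5; control wells carry no call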.
Shown is an unselected part of about 18,000 deposited reagents. About 2,900 of them (16%) were called active. 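Calls are made per well; low scores hint the gene aids the LPS response, high scores that it dampens it.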 Repeated entries: four replicate wells of each siRNA pool.

The opening 2 records as a preview:
ZNF30 (zinc finger protein 30) | outcome = inactive
ZNF30 (zinc finger protein 30) | TNF reporter robust z-score = 0.23; outcome = inactive

Main list, from the first entry:
ZNF30 (zinc finger protein 30) | outcome = inactive
ZNF30 (zinc finger protein 30) | TNF reporter robust z-score = 0.23; outcome = inactive
ZNF30 (zinc finger protein 30) | TNF reporter robust z-score = 0.81; outcome = inactive
ZNF30 (zinc finger protein 30) | TNF reporter robust z-score = 0.44; outcome = inactive
AMY1B (amylase alpha 1B) | TNF reporter robust z-score = -0.01; outcome = inactive
AMY1B (amylase alpha 1B) | TNF reporter robust z-score = 0.02; outcome = inactive
AMY1B (amylase alpha 1B) | TNF reporter robust z-score = 0.37; outcome = inactive
AMY1B (amylase alpha 1B) | TNF reporter robust z-score = 0.48; outcome = inactive
CUL7 (cullin 7) | TNF reporter robust z-score = -0.49; outcome = inactive
CUL7 (cullin 7) | TNF reporter robust z-score = -0.56; outcome = inactive
CUL7 (cullin 7) | TNF reporter robust z-score = 1.84; outcome = inactive
CUL7 (cullin 7) | TNF reporter robust z-score = 0.05; outcome = inactive
ZNF91 (zinc finger protein 91) | TNF reporter robust z-score = 1.26; outcome = inactive
ZNF91 (zinc finger protein 91) | TNF reporter robust z-score = 1.63; outcome = inactive
ZNF91 (zinc finger protein 91) | TNF reporter robust z-score = 1.13; outcome = inactive
ZNF91 (zinc finger protein 91) | TNF reporter robust z-score = -0.77; outcome = inactive
ORC2 (origin recognition complex subunit 2) | TNF reporter robust z-score = -0.16; outcome = inactive
ORC2 (origin recognition complex subunit 2) | TNF reporter robust z-score = 0.74; outcome = inactive
ORC2 (origin recognition complex subunit 2) | TNF reporter robust z-score = 0.42; outcome = inactive
ORC2 (origin recognition complex subunit 2) | TNF reporter robust z-score = 1.51; outcome = inactive
